# Results published in PubChem BioAssay AID1024 (Sanford-Burnham Center for Chemical Genomics, 2008).
# The chains behind the UniProt entries cited, without tags or fusion partners.
# UniProt P11712, whole entry, looked up: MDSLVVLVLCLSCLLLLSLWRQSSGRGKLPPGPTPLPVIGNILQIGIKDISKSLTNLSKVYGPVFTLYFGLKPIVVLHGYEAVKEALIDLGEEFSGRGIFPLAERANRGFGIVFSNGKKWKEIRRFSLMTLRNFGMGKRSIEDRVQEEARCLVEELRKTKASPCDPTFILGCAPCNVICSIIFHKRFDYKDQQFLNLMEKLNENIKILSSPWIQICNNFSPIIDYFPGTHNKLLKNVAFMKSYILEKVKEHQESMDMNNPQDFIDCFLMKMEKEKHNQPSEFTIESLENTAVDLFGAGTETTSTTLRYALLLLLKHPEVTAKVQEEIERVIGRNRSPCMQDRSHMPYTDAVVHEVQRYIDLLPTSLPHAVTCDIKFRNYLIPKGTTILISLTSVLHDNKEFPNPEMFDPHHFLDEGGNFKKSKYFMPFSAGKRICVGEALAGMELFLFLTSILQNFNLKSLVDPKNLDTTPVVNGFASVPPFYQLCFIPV
# The list shows a part of the results, in another mix than the full data. Calls of active or inactive are those of the source.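 Rule for the calls: active = activation factor of 2 or more for CYP2C9 at a 5 µM dose; inactive = the rest.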
# Target: Cytochrome P450 2C9 (Homo sapiens) (UniProt P11712)
# Assay: human CYP2C9 activators, primary screen, biochemical, luminescence (AID 1024);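 note: 0 = sulfaphenazole-blocked wells and 1 = vehicle-only wells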
# Conditions: recombinant CYP2C9, luciferin-H conversion, at 5 µM, hits give high values, factor 1 = untreated enzyme, 0 = blocked
row,SMILES,activation factor
1,CSc1ccccc1NC(=O)c1cc(CC(C)C)on1,active: 2.3
